Laboratory results reported in the supplement of paper PMC12823440, “Inhibitors supercharge kinase turnover through native proteolytic circuits” (Nature, 2025).
Some of the results follow. The calls rarely recur for the same compound in another form.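 Kinases were expressed as nanoluciferase fusions in K562 cells and luminescence was read every 4 h between 2 and 18 h as percent of control, DMSO set to 100% and a positive control to 0%. A time point counts as decreased when the signal drops significantly (2 sigma). The hit call is the authors' own, does not follow from the count of time points alone, and its rule is not shown.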

Protein sequences, listed by entry. Tags and fused reporters are not part of them. Lines headed by an entry give the natural chain unless they say otherwise; changes in a name come on top.
UniProt O14965: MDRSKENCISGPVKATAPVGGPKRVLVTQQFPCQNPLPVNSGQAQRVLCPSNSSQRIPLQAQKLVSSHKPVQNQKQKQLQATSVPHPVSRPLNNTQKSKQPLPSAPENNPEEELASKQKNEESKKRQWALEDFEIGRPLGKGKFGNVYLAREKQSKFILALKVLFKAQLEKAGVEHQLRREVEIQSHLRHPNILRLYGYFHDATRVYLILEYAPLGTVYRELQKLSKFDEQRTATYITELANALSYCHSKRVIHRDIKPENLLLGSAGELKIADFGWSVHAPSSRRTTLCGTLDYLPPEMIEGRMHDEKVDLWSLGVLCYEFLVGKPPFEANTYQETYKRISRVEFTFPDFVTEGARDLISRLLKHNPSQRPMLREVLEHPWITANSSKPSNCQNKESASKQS
UniProt Q13555: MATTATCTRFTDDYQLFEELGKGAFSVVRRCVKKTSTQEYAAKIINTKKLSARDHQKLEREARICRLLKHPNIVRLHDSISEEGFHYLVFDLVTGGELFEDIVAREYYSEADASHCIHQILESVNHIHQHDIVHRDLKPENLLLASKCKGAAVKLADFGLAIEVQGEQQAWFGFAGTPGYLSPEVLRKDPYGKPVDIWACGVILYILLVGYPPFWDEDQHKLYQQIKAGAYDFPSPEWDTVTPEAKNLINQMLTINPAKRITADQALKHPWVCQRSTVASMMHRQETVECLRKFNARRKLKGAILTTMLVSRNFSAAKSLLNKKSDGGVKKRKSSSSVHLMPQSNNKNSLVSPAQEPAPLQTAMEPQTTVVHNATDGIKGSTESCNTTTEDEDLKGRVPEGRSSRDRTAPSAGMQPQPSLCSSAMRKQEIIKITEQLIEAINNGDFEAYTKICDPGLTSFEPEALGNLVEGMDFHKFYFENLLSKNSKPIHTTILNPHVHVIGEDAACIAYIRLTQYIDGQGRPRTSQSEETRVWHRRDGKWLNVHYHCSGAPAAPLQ
UniProt Q96KB5: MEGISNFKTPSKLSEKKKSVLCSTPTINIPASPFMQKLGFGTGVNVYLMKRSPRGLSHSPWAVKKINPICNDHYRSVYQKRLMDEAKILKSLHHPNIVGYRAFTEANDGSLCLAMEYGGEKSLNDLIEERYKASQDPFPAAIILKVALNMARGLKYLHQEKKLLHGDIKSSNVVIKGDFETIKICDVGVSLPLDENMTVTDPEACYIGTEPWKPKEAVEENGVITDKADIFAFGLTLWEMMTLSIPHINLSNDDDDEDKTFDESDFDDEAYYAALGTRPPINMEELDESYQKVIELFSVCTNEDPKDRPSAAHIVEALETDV
UniProt Q9Y6E0: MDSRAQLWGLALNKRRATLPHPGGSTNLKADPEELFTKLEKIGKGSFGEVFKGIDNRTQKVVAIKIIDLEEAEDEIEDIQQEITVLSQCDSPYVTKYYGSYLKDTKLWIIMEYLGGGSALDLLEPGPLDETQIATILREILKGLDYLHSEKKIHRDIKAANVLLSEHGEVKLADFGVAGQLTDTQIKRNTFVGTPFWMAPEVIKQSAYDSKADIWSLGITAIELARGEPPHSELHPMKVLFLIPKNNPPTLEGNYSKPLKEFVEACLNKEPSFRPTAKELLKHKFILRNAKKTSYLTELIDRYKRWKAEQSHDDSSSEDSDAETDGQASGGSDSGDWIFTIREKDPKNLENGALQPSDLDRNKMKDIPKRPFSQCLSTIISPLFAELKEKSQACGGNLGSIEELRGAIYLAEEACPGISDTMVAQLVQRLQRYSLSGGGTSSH
UniProt P07949, whole entry, looked up: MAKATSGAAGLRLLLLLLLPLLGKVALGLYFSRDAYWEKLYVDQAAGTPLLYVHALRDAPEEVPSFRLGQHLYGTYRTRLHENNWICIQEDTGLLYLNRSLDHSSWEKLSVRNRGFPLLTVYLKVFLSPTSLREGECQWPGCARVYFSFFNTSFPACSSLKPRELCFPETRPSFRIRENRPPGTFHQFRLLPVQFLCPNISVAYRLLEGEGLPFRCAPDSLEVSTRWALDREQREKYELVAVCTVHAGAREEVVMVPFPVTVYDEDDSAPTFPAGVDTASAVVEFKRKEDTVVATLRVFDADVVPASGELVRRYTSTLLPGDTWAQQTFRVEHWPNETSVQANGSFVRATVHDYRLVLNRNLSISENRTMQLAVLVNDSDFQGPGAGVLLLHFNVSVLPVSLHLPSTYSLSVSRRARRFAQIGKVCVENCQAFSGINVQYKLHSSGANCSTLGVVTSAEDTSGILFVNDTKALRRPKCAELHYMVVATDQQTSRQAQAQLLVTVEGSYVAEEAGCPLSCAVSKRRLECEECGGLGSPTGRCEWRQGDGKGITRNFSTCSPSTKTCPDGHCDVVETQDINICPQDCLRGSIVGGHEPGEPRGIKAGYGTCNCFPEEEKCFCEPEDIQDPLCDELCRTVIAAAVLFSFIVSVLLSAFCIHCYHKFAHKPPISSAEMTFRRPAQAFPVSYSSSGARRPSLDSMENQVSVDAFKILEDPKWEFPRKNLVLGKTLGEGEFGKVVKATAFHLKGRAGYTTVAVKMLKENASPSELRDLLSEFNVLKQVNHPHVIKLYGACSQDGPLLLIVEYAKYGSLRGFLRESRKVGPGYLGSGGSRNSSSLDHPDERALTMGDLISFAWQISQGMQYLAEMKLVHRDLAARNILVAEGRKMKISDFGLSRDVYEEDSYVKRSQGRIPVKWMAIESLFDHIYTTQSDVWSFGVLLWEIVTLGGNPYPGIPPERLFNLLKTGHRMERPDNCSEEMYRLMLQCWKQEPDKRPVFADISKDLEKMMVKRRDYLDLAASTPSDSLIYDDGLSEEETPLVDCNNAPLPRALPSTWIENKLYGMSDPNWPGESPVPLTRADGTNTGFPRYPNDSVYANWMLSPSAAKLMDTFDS
UniProt Q06187: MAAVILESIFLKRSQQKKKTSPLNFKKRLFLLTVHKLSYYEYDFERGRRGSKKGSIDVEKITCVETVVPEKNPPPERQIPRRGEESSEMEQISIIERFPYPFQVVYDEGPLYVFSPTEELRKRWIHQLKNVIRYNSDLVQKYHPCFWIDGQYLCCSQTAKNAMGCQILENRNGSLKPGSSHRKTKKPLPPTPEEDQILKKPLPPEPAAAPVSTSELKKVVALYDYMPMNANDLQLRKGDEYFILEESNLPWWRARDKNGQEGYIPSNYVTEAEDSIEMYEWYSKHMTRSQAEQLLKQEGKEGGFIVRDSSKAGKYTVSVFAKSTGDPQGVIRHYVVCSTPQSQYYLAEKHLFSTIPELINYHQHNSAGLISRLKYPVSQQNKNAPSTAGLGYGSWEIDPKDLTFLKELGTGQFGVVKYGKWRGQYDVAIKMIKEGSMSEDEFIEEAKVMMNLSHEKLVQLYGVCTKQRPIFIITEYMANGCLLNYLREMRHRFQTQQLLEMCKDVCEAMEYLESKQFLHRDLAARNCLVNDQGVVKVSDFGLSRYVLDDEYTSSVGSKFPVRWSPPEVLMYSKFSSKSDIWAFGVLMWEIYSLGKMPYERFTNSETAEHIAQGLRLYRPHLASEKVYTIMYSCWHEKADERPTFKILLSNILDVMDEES
UniProt Q13131: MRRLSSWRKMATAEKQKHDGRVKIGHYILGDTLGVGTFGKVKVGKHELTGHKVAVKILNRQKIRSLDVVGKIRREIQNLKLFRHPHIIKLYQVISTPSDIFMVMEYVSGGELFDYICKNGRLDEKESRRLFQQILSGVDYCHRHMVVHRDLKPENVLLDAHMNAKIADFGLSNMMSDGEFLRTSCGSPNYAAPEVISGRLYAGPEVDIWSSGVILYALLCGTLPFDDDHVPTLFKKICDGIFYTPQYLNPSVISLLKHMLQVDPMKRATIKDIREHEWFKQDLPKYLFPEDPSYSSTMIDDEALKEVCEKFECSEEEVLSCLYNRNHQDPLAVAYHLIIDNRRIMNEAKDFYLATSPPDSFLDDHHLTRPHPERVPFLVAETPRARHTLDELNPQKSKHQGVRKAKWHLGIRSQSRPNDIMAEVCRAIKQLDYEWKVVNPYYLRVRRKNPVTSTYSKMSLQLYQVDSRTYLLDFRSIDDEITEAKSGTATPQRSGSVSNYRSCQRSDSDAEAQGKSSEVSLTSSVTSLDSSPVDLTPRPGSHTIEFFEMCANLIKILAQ
UniProt Q92630: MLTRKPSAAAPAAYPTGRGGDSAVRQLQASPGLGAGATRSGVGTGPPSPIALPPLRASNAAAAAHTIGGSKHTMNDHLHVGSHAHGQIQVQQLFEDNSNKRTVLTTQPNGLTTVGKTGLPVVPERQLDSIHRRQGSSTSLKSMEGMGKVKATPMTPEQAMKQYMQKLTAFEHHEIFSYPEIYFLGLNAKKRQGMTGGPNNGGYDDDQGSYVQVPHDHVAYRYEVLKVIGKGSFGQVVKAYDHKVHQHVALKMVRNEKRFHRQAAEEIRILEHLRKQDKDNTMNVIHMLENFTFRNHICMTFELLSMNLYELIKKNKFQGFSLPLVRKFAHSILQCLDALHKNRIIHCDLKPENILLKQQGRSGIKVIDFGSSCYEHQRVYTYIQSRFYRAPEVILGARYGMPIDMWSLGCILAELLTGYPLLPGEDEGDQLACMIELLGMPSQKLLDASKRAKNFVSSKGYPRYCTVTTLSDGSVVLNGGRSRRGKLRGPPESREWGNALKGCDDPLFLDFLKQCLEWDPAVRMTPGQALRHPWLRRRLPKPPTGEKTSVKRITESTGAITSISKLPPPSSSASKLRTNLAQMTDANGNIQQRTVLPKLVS
UniProt Q08345: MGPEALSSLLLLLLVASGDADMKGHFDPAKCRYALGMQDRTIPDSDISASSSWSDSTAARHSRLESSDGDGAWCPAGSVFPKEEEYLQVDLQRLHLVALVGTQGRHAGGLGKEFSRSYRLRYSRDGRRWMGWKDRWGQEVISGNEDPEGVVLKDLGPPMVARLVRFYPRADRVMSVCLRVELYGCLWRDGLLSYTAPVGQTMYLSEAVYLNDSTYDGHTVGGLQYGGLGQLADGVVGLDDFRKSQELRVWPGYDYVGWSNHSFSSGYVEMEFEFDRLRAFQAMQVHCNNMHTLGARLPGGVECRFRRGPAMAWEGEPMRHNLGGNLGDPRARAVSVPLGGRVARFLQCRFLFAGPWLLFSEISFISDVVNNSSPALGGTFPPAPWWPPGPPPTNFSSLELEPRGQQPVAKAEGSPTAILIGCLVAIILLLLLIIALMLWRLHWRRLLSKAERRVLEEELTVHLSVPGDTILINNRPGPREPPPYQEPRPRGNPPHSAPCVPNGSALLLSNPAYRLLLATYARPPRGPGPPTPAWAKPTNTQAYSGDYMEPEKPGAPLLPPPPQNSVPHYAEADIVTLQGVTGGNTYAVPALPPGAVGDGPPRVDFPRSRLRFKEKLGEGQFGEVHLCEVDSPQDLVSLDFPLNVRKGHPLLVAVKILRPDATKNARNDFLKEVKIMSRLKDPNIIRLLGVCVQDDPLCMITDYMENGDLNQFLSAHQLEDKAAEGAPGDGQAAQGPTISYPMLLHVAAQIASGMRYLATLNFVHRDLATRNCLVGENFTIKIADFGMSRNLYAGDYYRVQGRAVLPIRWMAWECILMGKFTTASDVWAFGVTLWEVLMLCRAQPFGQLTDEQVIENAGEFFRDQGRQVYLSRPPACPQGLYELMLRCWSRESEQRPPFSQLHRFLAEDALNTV
UniProt Q9UQB9: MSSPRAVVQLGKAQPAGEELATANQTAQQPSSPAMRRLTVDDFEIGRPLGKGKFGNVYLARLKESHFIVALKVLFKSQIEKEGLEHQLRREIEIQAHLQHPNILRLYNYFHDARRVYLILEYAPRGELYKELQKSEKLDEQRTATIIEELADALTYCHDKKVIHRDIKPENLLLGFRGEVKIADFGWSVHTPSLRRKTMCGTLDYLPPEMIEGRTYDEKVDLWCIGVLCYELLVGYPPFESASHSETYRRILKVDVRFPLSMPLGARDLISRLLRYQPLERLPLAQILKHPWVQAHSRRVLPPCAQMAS

Legend:
Assay in all cases: number of time points (of 5) at which kinase-Nluc abundance scored as decreased, DMSO-normalised (count); higher = more persistent destabilization
[1] = compound: C#Cc1cccc(Nc2ncnc3cc(OCCOC)c(OCCO)cc23)c1 [Desmethyl Erlotinib (hydrochloride)]; conditions: 10 µM; K562; 2-18 h
[2] = compound: C#Cc1cccc(Nc2ncnc3cc(OCCOC)c(OCCO)cc23)c1 [Desmethyl Erlotinib]; conditions: 10 µM; K562; 2-18 h
[3] = compound: C#Cc1cccc(Nc2ncnc3cc(OCCOC)c(OCCOC)cc23)c1 [Erlotinib (Hydrochloride)]; conditions: 10 µM; K562; 2-18 h
[4] = compound: C#Cc1cccc(Nc2ncnc3cc(OCCOC)c(OCCOC)cc23)c1 [Erlotinib]; conditions: 10 µM; K562; 2-18 h
[5] = compound: C#Cc1cccc(Nc2ncnc3cc4c(cc23)OCCOCCOCCO4)c1 [Icotinib (Hydrochloride)]; conditions: 10 µM; K562; 2-18 h
[6] = compound: C#Cc1cccc(Nc2ncnc3cc4c(cc23)OCCOCCOCCO4)c1 [Icotinib]; conditions: 10 µM; K562; 2-18 h
[7] = compound: C/C=C1\C(=O)C[C@H]2[C@@H]3CCC4=CC(=O)CC[C@]4(C)[C@H]3CC[C@]12C [(Z)-Guggulsterone]; conditions: 10 µM; K562; 2-18 h
[8] = compound: C/C=C1\C(=O)C[C@H]2[C@@H]3CCC4=CC(=O)CC[C@]4(C)[C@H]3CC[C@]12C [Guggulsterone]; conditions: 10 µM; K562; 2-18 h
[9] = compound: C=CC(=O)N1CCN(c2ncnc3c(F)c(-c4c(O)cccc4F)c(Cl)cc23)CC1; conditions: K562, 2-18 h
[10] = compound: C=CC(=O)Nc1cc(Nc2ncc(C(=O)OC(C)C)c(-c3cn(C)c4ccccc34)n2)c(OC)cc1N(C)CCN(C)C [Mobocertinib (succinate)]; conditions: 10 µM; K562; 2-18 h
[11] = compound: C=CC(=O)Nc1cc(Nc2ncc(C(=O)OC(C)C)c(-c3cn(C)c4ccccc34)n2)c(OC)cc1N(C)CCN(C)C [Mobocertinib]; conditions: 10 µM; K562; 2-18 h
[12] = compound: C=CC(=O)Nc1cc(Nc2nccc(-c3cn(C)c4ccccc34)n2)c(OC)cc1N(C)CCN(C)C [Osimertinib (dimesylate)]; conditions: 2.5 µM; K562; 2-18 h
[13] = compound: C=CC(=O)Nc1cc(Nc2nccc(-c3cn(C)c4ccccc34)n2)c(OC)cc1N(C)CCN(C)C [Osimertinib mesylate]; conditions: 2.5 µM; K562; 2-18 h
[14] = compound: C=CC(=O)Nc1cc(Nc2nccc(-c3cn(C)c4ccccc34)n2)c(OC)cc1N(C)CCN(C)C [Osimertinib]; conditions: 2.5 µM; K562; 2-18 h
[15] = compound: C=CC(=O)Nc1cc(Nc2nccc(-c3cn(C4CC4)c4ccccc34)n2)c(OC)cc1N(C)CCN(C)C [Almonertinib (hydrochloride)]; conditions: 2.5 µM; K562; 2-18 h
[16] = compound: C=CC(=O)Nc1cc(Nc2nccc(-c3cn(C4CC4)c4ccccc34)n2)c(OC)cc1N(C)CCN(C)C [Almonertinib]; conditions: 2.5 µM; K562; 2-18 h
[17] = compound: C=CC(=O)Nc1cc2c(Nc3ccc(F)c(Cl)c3)ncnc2cc1C#CC(C)(C)N1CCN(C)CC1 [AV-412 (free base)]; conditions: 2.5 µM; K562; 2-18 h
[18] = compound: C=CC(=O)Nc1cc2c(Nc3ccc(F)c(Cl)c3)ncnc2cc1C#CC(C)(C)N1CCN(C)CC1; conditions: 2.5 µM; K562; 2-18 h
[19] = compound: CC(=O)N[C@H](Cc1ccc(O)cc1)C(=O)N[C@H](CCCN=C(N)N)C(=O)N[C@H](Cc1ccccc1)C(N)=O; conditions: 10 µM; K562; 2-18 h
[20] = compound: CC(=O)Nc1cccc(-n2c(=O)n(C3CC3)c(=O)c3c(Nc4ccc(I)cc4F)n(C)c(=O)c(C)c32)c1 [Trametinib (DMSO solvate)]; conditions: 10 µM; K562; 2-18 h

Row | Target | number of time points [1] | number of time points [2] | number of time points [3] | number of time points [4] | number of time points [5] | number of time points [6] | number of time points [7] | number of time points [8] | number of time points ([9]; 2.5 µM) | number of time points ([9]; 10 µM) | number of time points [10] | number of time points [11] | number of time points [12] | number of time points [13] | number of time points [14] | number of time points [15] | number of time points [16] | number of time points [17] | number of time points [18] | number of time points [19] | number of time points [20]
1 | AURKA (UniProt O14965) | 0 | 0 | 0 | 0 | 0 | 3 | 0 | 0 | 0 | 0 | 0 | 0 | 0 | 0 | 0 | 0 | 0 | 4 | 4 | 0 | 1
2 | CAMK2G (UniProt Q13555) | 0 | 0 | 0 | 0 | 0 | 0 | 0 | 0 | 0 | 0 | 0 | 0 | 0 | 0 | 0 | 0 | 0 | 0 | 0 | 0 | 0
3 | SRC (UniProt P12931) | 0 | 0 | 0 | 0 | 0 | 0 | 0 | 0 | 0 | 0 | 0 | 0 | 0 | 0 | 0 | 0 | 0 | 0 | 0 | 0 | 0
4 | PBK (UniProt Q96KB5) | 0 | 0 | 0 | 0 | 0 | 0 | 0 | 0 | 0 | 0 | 0 | 0 | 0 | 0 | 0 | 0 | 0 | 0 | 0 | 0 | 0
5 | STK24 (UniProt Q9Y6E0) | 0 | 0 | 0 | 0 | 0 | 0 | 0 | 0 | 0 | 0 | 0 | 0 | 0 | 0 | 0 | 0 | 0 | 0 | 0 | 0 | 0
6 | RET (UniProt P07949) | 0 | 0 | 0 | 0 | 0 | 0 | 0 | 0 | 0 | 0 | 0 | 0 | 0 | 0 | 0 | 0 | 0 | 0 | 0 | 0 | 0
7 | BTK (UniProt Q06187) | 0 | 0 | 0 | 0 | 0 | 0 | 0 | 0 | 0 | 0 | 0 | 3 | 0 | 0 | 0 | 0 | 0 | 0 | 0 | 0 | 0
8 | PRKAA1 (UniProt Q13131) | 5 | 0 | 0 | 0 | 0 | 0 | 0 | 0 | 0 | 0 | 0 | 0 | 0 | 0 | 0 | 0 | 0 | 0 | 0 | 0 | 0
9 | DYRK2 (UniProt Q92630) | 0 | 0 | 3 | 0 | 0 | 2 | 0 | 0 | 0 | 0 | 0 | 0 | 0 | 0 | 0 | 0 | 0 | 3 | 4 | 0 | 0
10 | ALK (UniProt Q9UM73) | 0 | 0 | 0 | 0 | 0 | 0 | 0 | 0 | 0 | 0 | 0 | 0 | 0 | 0 | 0 | 0 | 0 | 0 | 0 | 0 | 0
11 | DDR1 (UniProt Q08345) | 0 | 0 | 0 | 0 | 0 | 0 | 0 | 0 | 0 | 0 | 0 | 0 | 0 | 0 | 0 | 0 | 0 | 5 | 5 | 0 | 0
12 | FLT3 (UniProt P36888) | 0 | 0 | 0 | 0 | 0 | 0 | 0 | 0 | 0 | 0 | 0 | 0 | 0 | 0 | 0 | 0 | 0 | 0 | 0 | 0 | 0
13 | AURKC (UniProt Q9UQB9) | 0 | 0 | 0 | 0 | 0 | 0 | 0 | 0 | 0 | 0 | 0 | 0 | 0 | 0 | 0 | 0 | 0 | 0 | 0 | 0 | 0
14 | MAP4K2 (UniProt Q12851) | 0 | 0 | 0 | 0 | 0 | 0 | 0 | 0 | 0 | 0 | 0 | 0 | 0 | 0 | 0 | 0 | 0 | 0 | 0 | 0 | 0
